In the supplement of paper PMC6414424:
± gives the standard deviation of the averaged measurements. The list shows a part of the results.

Each compound was assayed on APPdp1-6 iPSC-derived neurons (assay: pThr231Tau/total Tau ratio Z-score vs DMSO vehicle wells; higher = more pThr231Tau relative to total Tau). Settings: 5 µM; treatment time 5 days.

Question: For CC(=O)OCC(=O)[C@@]1(O)CC[C@H]2[C@@H]3CCC4=CC(=O)CC[C@]4(C)[C@@]3(F)[C@@H](O)C[C@@]21C [Prestw-281], which “pThr231Tau/total Tau ratio Z-score” value is on record?
Answer: -0.516 ± 0.018

Question: How did the “pThr231Tau/total Tau ratio Z-score” value turn out when NC(N)=NS(=O)(=O)c1ccc(N)cc1 [Prestw-10] was run?
Answer: 0.326 ± 2.2

Question: For OC(Cn1cncn1)(Cn1cncn1)c1ccc(F)cc1F [Prestw-1417], which “pThr231Tau/total Tau ratio Z-score” value is on record?
Answer: 1.47 ± 2.2

Question: CCCOc1cc(N)ccc1C(=O)OCCN(CC)CC [Prestw-1059] was tested. Which “pThr231Tau/total Tau ratio Z-score” value did it give?
Answer: -2.11 ± 1.4

Question: For NCCc1c[nH]cn1 [Histamine], which “pThr231Tau/total Tau ratio Z-score” value is on record?
Answer: 0.297 ± 1.6

Question: CC[N+](C)(C)c1cccc(O)c1 [Prestw-83] was tested. Which “pThr231Tau/total Tau ratio Z-score” value did it give?
Answer: 0.182 ± 0.61

Question: How did the “pThr231Tau/total Tau ratio Z-score” value turn out when CC(=O)[C@@]1(O)CC[C@H]2[C@@H]3C=C(Cl)C4=CC(=O)[C@@H]5C[C@@H]5[C@]4(C)[C@H]3CC[C@@]21C [CYPROTERONE    Therap cat: antiandrogen] was run?
Answer: 2.81 ± 4

Question: Which “pThr231Tau/total Tau ratio Z-score” value does the source give for Nc1[nH]cnc2ncnc1-2 [Adenine] here?
Answer: 1.2 ± 1.2

Question: For COc1cc(C(=O)OCCCN2CCCN(CCCOC(=O)c3cc(OC)c(OC)c(OC)c3)CC2)cc(OC)c1OC [Prestw-236], which “pThr231Tau/total Tau ratio Z-score” value is on record?
Answer: 0.655 ± 0.39

Question: For CC[N+](C)(CC)CCOC(=O)C(O)(c1ccccc1)C1CCCCC1 (configuration not stated), which “pThr231Tau/total Tau ratio Z-score” value is on record?
Answer: 1.26 ± 2.4

Question: With CN(C)CCCN1c2ccccc2Sc2ccc(C(F)(F)F)cc21 [Prestw-53] as the compound, how does the “pThr231Tau/total Tau ratio Z-score” value read?
Answer: -1.13 ± 0.079

Question: With CC1(C)OC(=O)C(OCC2CC2)=C1c1ccc(S(C)(=O)=O)cc1 as the compound, how does the “pThr231Tau/total Tau ratio Z-score” value read?
Answer: 1.43 ± 0.61

Question: How did the “pThr231Tau/total Tau ratio Z-score” value turn out when CCCCC(O)c1ccccc1 (configuration not stated) [Prestw-1501] was run?
Answer: 0.151 ± 1.8

Question: With CCN(CC)CCOC(=O)C1(C2CCCCC2)CCCCC1 [Prestw-48] as the compound, how does the “pThr231Tau/total Tau ratio Z-score” value read?
Answer: -0.639 ± 0.85

Question: With CN1CCN(C2=Nc3ccccc3Oc3ccc(Cl)cc32)CC1 [Prestw-132] as the compound, how does the “pThr231Tau/total Tau ratio Z-score” value read?
Answer: -0.831 ± 1.4

Question: For NCc1ccccc1CC(=O)N[C@@H]1C(=O)N2C(C(=O)O)=C(CSc3nnnn3CC(=O)O)CS[C@H]12 [Prestw-470], which “pThr231Tau/total Tau ratio Z-score” value is on record?
Answer: -0.0153 ± 0.15

Question: How did the “pThr231Tau/total Tau ratio Z-score” value turn out when COc1c2occc2cc2ccc(=O)oc12 was run?
Answer: 0.507 ± 1.2

Question: For Oc1ccc2ccccc2c1 [beta-NAPHTHOL], which “pThr231Tau/total Tau ratio Z-score” value is on record?
Answer: -0.562 ± 0.18

Question: How did the “pThr231Tau/total Tau ratio Z-score” value turn out when C[N+]1(C)CCC(OC(=O)C(O)(c2ccccc2)C2CCCC2)C1 (configuration not stated) [Prestw-746] was run?
Answer: -0.38 ± 1

Question: Which “pThr231Tau/total Tau ratio Z-score” value does the source give for N#Cc1ccc(C(c2ccc(C#N)cc2)n2cncn2)cc1 [Prestw-1025] here?
Answer: -1.44 ± 0.42

Question: Clc1ccc(CCC(Cn2ccnc2)Sc2c(Cl)cccc2Cl)cc1 (configuration not stated) [Prestw-408] was tested. Which “pThr231Tau/total Tau ratio Z-score” value did it give?
Answer: -1.17 ± 0.34

Question: O=C(O)Cc1ccc(-c2ccccc2)cc1 [Prestw-893] was tested. Which “pThr231Tau/total Tau ratio Z-score” value did it give?
Answer: 0.659 ± 0.29

Question: For C[C@@H]1C[C@H]2[C@@H]3C[C@H](F)C4=CC(=O)C=C[C@]4(C)[C@@]3(F)[C@@H](O)C[C@]2(C)[C@@]1(O)C(=O)CO [Prestw-734], which “pThr231Tau/total Tau ratio Z-score” value is on record?
Answer: -0.56 ± 0.73

Question: O=C(O)c1cn(-c2ccc(F)cc2)c2cc(N3CCNCC3)c(F)cc2c1=O [Prestw-1339] was tested. Which “pThr231Tau/total Tau ratio Z-score” value did it give?
Answer: 1.14 ± 0.79

Question: For O=C([O-])c1ccccc1[O-].[Bi+3].[OH-] [BISMUTH SUBSALICYLATE, antidiarrheal, antacid, antiulcer], which “pThr231Tau/total Tau ratio Z-score” value is on record?
Answer: 1.43 ± 1.8

Question: CCCc1nc(C(C)(C)O)c(C(=O)OCc2oc(=O)oc2C)n1Cc1ccc(-c2ccccc2-c2nn[nH]n2)cc1 [Prestw-1190] was tested. Which “pThr231Tau/total Tau ratio Z-score” value did it give?
Answer: -0.802 ± 1.1

Question: C[C@]12CCC(=O)C=C1CC[C@@H]1[C@@H]2C(=O)C[C@@]2(C)[C@H]1CC[C@]2(O)C(=O)CO [Prestw-273] was tested. Which “pThr231Tau/total Tau ratio Z-score” value did it give?
Answer: 0.688 ± 1.9

Question: For COC(=O)[C@H](c1ccccc1Cl)N1CCc2sccc2C1, which “pThr231Tau/total Tau ratio Z-score” value is on record?
Answer: 0.656 ± 1.3

Question: COCCCC/C(=N\OCCN)c1ccc(C(F)(F)F)cc1 [Prestw-995] was tested. Which “pThr231Tau/total Tau ratio Z-score” value did it give?
Answer: 1.07 ± 1.1

Question: CC(=O)[C@@]12O[C@](C)(c3ccccc3)O[C@@H]1C[C@H]1[C@@H]3CCC4=CC(=O)CC[C@]4(C)[C@H]3CC[C@@]12C [ALGESTERONE ACETOPHENIDE, progestin] was tested. Which “pThr231Tau/total Tau ratio Z-score” value did it give?
Answer: 2.89 ± 0.3

Question: With NC(=O)c1ccccc1O [SALICYLAMIDE    Therap cat:  Analgesic] as the compound, how does the “pThr231Tau/total Tau ratio Z-score” value read?
Answer: 1.6 ± 2.8

Question: Which “pThr231Tau/total Tau ratio Z-score” value does the source give for Nc1nc(F)nc2c1ncn2[C@@H]1O[C@H](COP(=O)(O)O)[C@@H](O)[C@@H]1O [FLUDARABINE PHOSPHATE, antineoplastic] here?
Answer: 1.14 ± 2.1

Question: Which “pThr231Tau/total Tau ratio Z-score” value does the source give for CCOC(=O)N1CCC(=C2c3ccc(Cl)cc3CCc3cccnc32)CC1 [Prestw-1432] here?
Answer: -1.11 ± 1

Question: Oc1c(Br)cc(Br)c2cccnc12 [BROXYQUINOLINE    Therap cat:  Antiseptic; disinfectant] was tested. Which “pThr231Tau/total Tau ratio Z-score” value did it give?
Answer: 1.5 ± 1.1

Question: Which “pThr231Tau/total Tau ratio Z-score” value does the source give for c1ccc(CC2=NCCN2)cc1 [Prestw-60] here?
Answer: 1.52 ± 3.5

Question: With OCCN1CCN(CCCN2c3ccccc3Sc3ccc(C(F)(F)F)cc32)CC1 [Prestw-320] as the compound, how does the “pThr231Tau/total Tau ratio Z-score” value read?
Answer: -1.31 ± 0.3

Question: How did the “pThr231Tau/total Tau ratio Z-score” value turn out when CC(C)(Oc1ccc(CCNC(=O)c2ccc(Cl)cc2)cc1)C(=O)O [Prestw-378] was run?
Answer: 0.359 ± 2.2

Question: With O=C(O)CCc1nc(-c2ccccc2)c(-c2ccccc2)o1 [Prestw-1060] as the compound, how does the “pThr231Tau/total Tau ratio Z-score” value read?
Answer: -0.235 ± 0.8

Question: With O=C1c2ccccc2C(=O)C1c1ccccc1 [Prestw-538] as the compound, how does the “pThr231Tau/total Tau ratio Z-score” value read?
Answer: 0.147 ± 1.4

Question: With Clc1ccc2c(c1)C(N1CCNCC1)=Nc1ccccc1O2 [Prestw-102] as the compound, how does the “pThr231Tau/total Tau ratio Z-score” value read?
Answer: -1.51 ± 0.22

Question: CC(C)N=C(N)/N=C(\N)Nc1ccc(Cl)cc1 [Prestw-999] was tested. Which “pThr231Tau/total Tau ratio Z-score” value did it give?
Answer: 0.707 ± 0.52

Question: Which “pThr231Tau/total Tau ratio Z-score” value does the source give for CC[C@H]1OC(=O)[C@H](C)[C@@H](O[C@H]2C[C@@](C)(OC)[C@@H](O)[C@H](C)O2)[C@H](C)[C@@H](O[C@@H]2O[C@H](C)C[C@H](N(C)C)[C@H]2O)[C@](C)(O)C[C@@H](C)C(=O)[C@H](C)[C@@H](O)[C@]1(C)O [Prestw-151] here?
Answer: 0.451 ± 1.2

Question: Which “pThr231Tau/total Tau ratio Z-score” value does the source give for CC[C@H]1OC(=O)[C@H](C)[C@@H](O[C@H]2C[C@@](C)(OC)[C@@H](O)[C@H](C)O2)[C@H](C)[C@@H](O[C@@H]2O[C@H](C)C[C@H](N(C)C)[C@H]2O)[C@](C)(O)C[C@@H](C)C(=O)[C@H](C)[C@@H](O)[C@]1(C)O here?
Answer: 0.0273 ± 0.19

Question: With CO[C@H]1/C=C/O[C@@]2(C)Oc3c(C)c(O)c4c(O)c(c(/C=N/N5CCN(C)CC5)c(O)c4c3C2=O)NC(=O)/C(C)=C\C=C\[C@H](C)[C@H](O)[C@@H](C)[C@@H](O)[C@@H](C)[C@H](OC(C)=O)[C@@H]1C [Prestw-525] as the compound, how does the “pThr231Tau/total Tau ratio Z-score” value read?
Answer: -0.481 ± 0.75

Question: CC=C(C)C(=O)OC1C(OC(C)=O)C2(CO)C(O)CC3(C)C(=CCC4C5(C)CCC(OC6OC(C(=O)O)C(OC7OC(CO)C(O)C(O)C7O)C(O)C6OC6OC(CO)C(O)C(O)C6O)C(C)(CO)C5CCC43C)C2CC1(C)C (configuration not stated) [Prestw-676] was tested. Which “pThr231Tau/total Tau ratio Z-score” value did it give?
Answer: -1.27 ± 0.33

Question: Which “pThr231Tau/total Tau ratio Z-score” value does the source give for Cc1c(Cl)cccc1Nc1ccccc1C(=O)O [Prestw-205] here?
Answer: -0.53 ± 0.95

Question: Cc1ccc(N(CC2=NCCN2)c2cccc(O)c2)cc1 [Prestw-230] was tested. Which “pThr231Tau/total Tau ratio Z-score” value did it give?
Answer: 0.464 ± 0.74
